According to doi:10.1101/2025.10.07.680213:
Read-outs that look alike come from different tables or passages of the source. These are yes or no findings as the source states them, for the method shown. Binding seen in cells or lysates may run through a third protein. Some binding calls cover weakened binding; strength is not graded here. Where a sequence is shown, tags or fusion partners need not be part of it.

The chains behind the UniProt entries cited, without tags or fusion partners.
UniProt P14713: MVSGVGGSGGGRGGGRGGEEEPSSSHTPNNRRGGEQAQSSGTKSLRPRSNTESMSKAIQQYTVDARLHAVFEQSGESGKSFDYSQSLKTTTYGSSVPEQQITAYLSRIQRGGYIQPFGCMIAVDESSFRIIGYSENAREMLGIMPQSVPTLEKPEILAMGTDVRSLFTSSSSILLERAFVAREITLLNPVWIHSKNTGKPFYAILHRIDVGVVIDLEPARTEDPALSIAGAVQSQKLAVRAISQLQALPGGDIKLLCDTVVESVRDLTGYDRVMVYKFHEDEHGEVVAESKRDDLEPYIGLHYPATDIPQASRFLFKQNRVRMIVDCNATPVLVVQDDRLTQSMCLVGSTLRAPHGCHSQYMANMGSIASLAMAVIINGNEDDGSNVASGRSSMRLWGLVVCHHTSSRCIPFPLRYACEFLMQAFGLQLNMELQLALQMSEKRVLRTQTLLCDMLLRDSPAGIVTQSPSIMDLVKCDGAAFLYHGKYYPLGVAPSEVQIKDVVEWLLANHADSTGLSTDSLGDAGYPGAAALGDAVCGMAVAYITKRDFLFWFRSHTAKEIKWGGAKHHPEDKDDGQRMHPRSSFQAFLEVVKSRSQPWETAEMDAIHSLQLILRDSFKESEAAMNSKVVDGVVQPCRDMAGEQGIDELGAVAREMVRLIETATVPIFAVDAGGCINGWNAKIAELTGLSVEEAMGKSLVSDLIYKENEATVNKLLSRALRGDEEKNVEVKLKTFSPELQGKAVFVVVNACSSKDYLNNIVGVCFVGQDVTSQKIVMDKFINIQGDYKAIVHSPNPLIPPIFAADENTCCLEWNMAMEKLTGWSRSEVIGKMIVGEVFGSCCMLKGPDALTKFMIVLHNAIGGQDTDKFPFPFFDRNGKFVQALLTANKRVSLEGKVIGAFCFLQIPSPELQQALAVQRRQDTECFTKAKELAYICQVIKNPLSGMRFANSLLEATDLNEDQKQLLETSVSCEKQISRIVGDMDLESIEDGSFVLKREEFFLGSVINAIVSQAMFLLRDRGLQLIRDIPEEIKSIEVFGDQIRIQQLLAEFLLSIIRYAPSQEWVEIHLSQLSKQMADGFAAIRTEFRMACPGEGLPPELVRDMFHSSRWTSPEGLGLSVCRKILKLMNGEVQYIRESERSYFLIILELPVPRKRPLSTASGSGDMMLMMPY

Tests used:
[1] = target: T1, p35S::PIF7-lgbitnLUC (Arabidopsis thaliana) (UniProt Q570R7); assay: split reporter
T1 sequence: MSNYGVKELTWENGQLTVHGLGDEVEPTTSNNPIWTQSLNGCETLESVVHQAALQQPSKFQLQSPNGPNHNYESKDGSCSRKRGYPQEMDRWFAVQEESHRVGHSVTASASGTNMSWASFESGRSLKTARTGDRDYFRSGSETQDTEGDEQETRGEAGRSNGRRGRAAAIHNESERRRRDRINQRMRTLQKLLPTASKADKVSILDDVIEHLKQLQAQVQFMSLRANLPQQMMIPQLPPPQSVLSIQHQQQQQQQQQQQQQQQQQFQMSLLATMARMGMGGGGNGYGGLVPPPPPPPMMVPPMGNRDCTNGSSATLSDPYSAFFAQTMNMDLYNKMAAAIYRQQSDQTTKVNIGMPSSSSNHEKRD

[2] = target: T2, p35S::PIF7-nYFP (PHYTOCHROME … FACTOR 7 fused to nYFP) (Arabidopsis thaliana) (UniProt Q570R7); assay: split reporter
T2 sequence: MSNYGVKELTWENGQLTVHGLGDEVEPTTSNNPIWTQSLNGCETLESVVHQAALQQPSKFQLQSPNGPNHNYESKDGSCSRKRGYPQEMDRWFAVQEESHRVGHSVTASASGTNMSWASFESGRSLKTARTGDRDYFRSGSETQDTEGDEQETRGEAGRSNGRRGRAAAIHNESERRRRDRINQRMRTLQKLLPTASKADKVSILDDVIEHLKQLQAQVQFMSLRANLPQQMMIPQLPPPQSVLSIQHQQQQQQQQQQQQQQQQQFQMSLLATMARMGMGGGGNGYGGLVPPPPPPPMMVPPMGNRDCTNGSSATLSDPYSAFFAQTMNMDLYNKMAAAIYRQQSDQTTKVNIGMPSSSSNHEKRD

[3] = target: T1, p35S::PIF7-lgbitnLUC (Arabidopsis thaliana); assay: split reporter; remark: listed apart in the source
[4] = target: T3, p35S::PIF7-FLASH (9×Myc-6×His-3×FLAG) (Arabidopsis thaliana) (UniProt Q570R7); assay: co-IP
T3 sequence: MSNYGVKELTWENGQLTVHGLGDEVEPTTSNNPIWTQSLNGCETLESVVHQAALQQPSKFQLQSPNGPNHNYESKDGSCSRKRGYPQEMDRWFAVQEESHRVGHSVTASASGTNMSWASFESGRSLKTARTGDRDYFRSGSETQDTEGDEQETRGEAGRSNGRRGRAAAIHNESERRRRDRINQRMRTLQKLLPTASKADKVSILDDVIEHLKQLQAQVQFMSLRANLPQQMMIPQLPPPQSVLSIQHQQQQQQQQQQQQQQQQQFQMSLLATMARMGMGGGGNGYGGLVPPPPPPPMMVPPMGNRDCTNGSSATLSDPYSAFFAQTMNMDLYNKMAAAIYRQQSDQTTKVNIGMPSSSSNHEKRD

p35S::PHYB-smbitnLUC (from UniProt P14713 1-1172)
binding [1]: binds

B1: p35S::PHYA-cYFP (phytochrome A fused to cYFP) (protein, UniProt P14712 1-1122)
chain: MSGSRPTQSSEGSRRSRHSARIIAQTTVDAKLHADFEESGSSFDYSTSVRVTGPVVENQPPRSDKVTTTYLHHIQKGKLIQPFGCLLALDEKTFKVIAYSENASELLTMASHAVPSVGEHPVLGIGTDIRSLFTAPSASALQKALGFGDVSLLNPILVHCRTSAKPFYAIIHRVTGSIIIDFEPVKPYEVPMTAAGALQSYKLAAKAITRLQSLPSGSMERLCDTMVQEVFELTGYDRVMAYKFHEDDHGEVVSEVTKPGLEPYLGLHYPATDIPQAARFLFMKNKVRMIVDCNAKHARVLQDEKLSFDLTLCGSTLRAPHSCHLQYMANMDSIASLVMAVVVNEEDGEGDAPDATTQPQKRKRLWGLVVCHNTTPRFVPFPLRYACEFLAQVFAIHVNKEVELDNQMVEKNILRTQTLLCDMLMRDAPLGIVSQSPNIMDLVKCDGAALLYKDKIWKLGTTPSEFHLQEIASWLCEYHMDSTGLSTDSLHDAGFPRALSLGDSVCGMAAVRISSKDMIFWFRSHTAGEVRWGGAKHDPDDRDDARRMHPRSSFKAFLEVVKTRSLPWKDYEMDAIHSLQLILRNAFKDSETTDVNTKVIYSKLNDLKIDGIQELEAVTSEMVRLIETATVPILAVDSDGLVNGWNTKIAELTGLSVDEAIGKHFLTLVEDSSVEIVKRMLENALEGTEEQNVQFEIKTHLSRADAGPISLVVNACASRDLHENVVGVCFVAHDLTGQKTVMDKFTRIEGDYKAIIQNPNPLIPPIFGTDEFGWCTEWNPAMSKLTGLKREEVIDKMLLGEVFGTQKSCCRLKNQEAFVNLGIVLNNAVTSQDPEKVSFAFFTRGGKYVECLLCVSKKLDREGVVTGVFCFLQLASHELQQALHVQRLAERTAVKRLKALAYIKRQIRNPLSGIMFTRKMIEGTELGPEQRRILQTSALCQKQLSKILDDSDLESIIEGCLDLEMKEFTLNEVLTASTSQVMMKSNGKSVRITNETGEEVMSDTLYGDSIRLQQVLADFMLMAVNFTPSGGQLTVSASLRKDQLGRSVHLANLEIRLTHTGAGIPEFLLNQMFGTEEDVSEEGLSLMVSRKLVKLMNGDVQYLRQAGKSSFIITAELAAANK
binding [2]: binds

B2: p35S::PHYA-smbitnLUC (protein, UniProt P14712 1-1122)
chain: MSGSRPTQSSEGSRRSRHSARIIAQTTVDAKLHADFEESGSSFDYSTSVRVTGPVVENQPPRSDKVTTTYLHHIQKGKLIQPFGCLLALDEKTFKVIAYSENASELLTMASHAVPSVGEHPVLGIGTDIRSLFTAPSASALQKALGFGDVSLLNPILVHCRTSAKPFYAIIHRVTGSIIIDFEPVKPYEVPMTAAGALQSYKLAAKAITRLQSLPSGSMERLCDTMVQEVFELTGYDRVMAYKFHEDDHGEVVSEVTKPGLEPYLGLHYPATDIPQAARFLFMKNKVRMIVDCNAKHARVLQDEKLSFDLTLCGSTLRAPHSCHLQYMANMDSIASLVMAVVVNEEDGEGDAPDATTQPQKRKRLWGLVVCHNTTPRFVPFPLRYACEFLAQVFAIHVNKEVELDNQMVEKNILRTQTLLCDMLMRDAPLGIVSQSPNIMDLVKCDGAALLYKDKIWKLGTTPSEFHLQEIASWLCEYHMDSTGLSTDSLHDAGFPRALSLGDSVCGMAAVRISSKDMIFWFRSHTAGEVRWGGAKHDPDDRDDARRMHPRSSFKAFLEVVKTRSLPWKDYEMDAIHSLQLILRNAFKDSETTDVNTKVIYSKLNDLKIDGIQELEAVTSEMVRLIETATVPILAVDSDGLVNGWNTKIAELTGLSVDEAIGKHFLTLVEDSSVEIVKRMLENALEGTEEQNVQFEIKTHLSRADAGPISLVVNACASRDLHENVVGVCFVAHDLTGQKTVMDKFTRIEGDYKAIIQNPNPLIPPIFGTDEFGWCTEWNPAMSKLTGLKREEVIDKMLLGEVFGTQKSCCRLKNQEAFVNLGIVLNNAVTSQDPEKVSFAFFTRGGKYVECLLCVSKKLDREGVVTGVFCFLQLASHELQQALHVQRLAERTAVKRLKALAYIKRQIRNPLSGIMFTRKMIEGTELGPEQRRILQTSALCQKQLSKILDDSDLESIIEGCLDLEMKEFTLNEVLTASTSQVMMKSNGKSVRITNETGEEVMSDTLYGDSIRLQQVLADFMLMAVNFTPSGGQLTVSASLRKDQLGRSVHLANLEIRLTHTGAGIPEFLLNQMFGTEEDVSEEGLSLMVSRKLVKLMNGDVQYLRQAGKSSFIITAELAAANK
binding [3]: binds

B3: native phytochrome A (phyA) (protein, UniProt P14712 1-1122)
chain: MSGSRPTQSSEGSRRSRHSARIIAQTTVDAKLHADFEESGSSFDYSTSVRVTGPVVENQPPRSDKVTTTYLHHIQKGKLIQPFGCLLALDEKTFKVIAYSENASELLTMASHAVPSVGEHPVLGIGTDIRSLFTAPSASALQKALGFGDVSLLNPILVHCRTSAKPFYAIIHRVTGSIIIDFEPVKPYEVPMTAAGALQSYKLAAKAITRLQSLPSGSMERLCDTMVQEVFELTGYDRVMAYKFHEDDHGEVVSEVTKPGLEPYLGLHYPATDIPQAARFLFMKNKVRMIVDCNAKHARVLQDEKLSFDLTLCGSTLRAPHSCHLQYMANMDSIASLVMAVVVNEEDGEGDAPDATTQPQKRKRLWGLVVCHNTTPRFVPFPLRYACEFLAQVFAIHVNKEVELDNQMVEKNILRTQTLLCDMLMRDAPLGIVSQSPNIMDLVKCDGAALLYKDKIWKLGTTPSEFHLQEIASWLCEYHMDSTGLSTDSLHDAGFPRALSLGDSVCGMAAVRISSKDMIFWFRSHTAGEVRWGGAKHDPDDRDDARRMHPRSSFKAFLEVVKTRSLPWKDYEMDAIHSLQLILRNAFKDSETTDVNTKVIYSKLNDLKIDGIQELEAVTSEMVRLIETATVPILAVDSDGLVNGWNTKIAELTGLSVDEAIGKHFLTLVEDSSVEIVKRMLENALEGTEEQNVQFEIKTHLSRADAGPISLVVNACASRDLHENVVGVCFVAHDLTGQKTVMDKFTRIEGDYKAIIQNPNPLIPPIFGTDEFGWCTEWNPAMSKLTGLKREEVIDKMLLGEVFGTQKSCCRLKNQEAFVNLGIVLNNAVTSQDPEKVSFAFFTRGGKYVECLLCVSKKLDREGVVTGVFCFLQLASHELQQALHVQRLAERTAVKRLKALAYIKRQIRNPLSGIMFTRKMIEGTELGPEQRRILQTSALCQKQLSKILDDSDLESIIEGCLDLEMKEFTLNEVLTASTSQVMMKSNGKSVRITNETGEEVMSDTLYGDSIRLQQVLADFMLMAVNFTPSGGQLTVSASLRKDQLGRSVHLANLEIRLTHTGAGIPEFLLNQMFGTEEDVSEEGLSLMVSRKLVKLMNGDVQYLRQAGKSSFIITAELAAANK
binding [4]: binds
